Data as given in patent publication US9433577B2 (Merck Patent GmbH, priority 2009, dated 2016).

Assay: general procedure: peptide synthesis; DCCI, DIPCDI or EDCI
Settings: purification step

In the case of cyclo-(Arg-Gly-Asp-DPhe-NMeVal), the “final HPLC purity” value (run 1) is reported as 99.9%, the “final HPLC purity” value (run 2) is reported as 99.9% and the “final HPLC purity” value (run 3) is reported as 99%. The “final HPLC purity” value (run 4) was 99.8%.
